## Screening data, single-dose tests

Measurements from “University of Dundee, Small-Polar-MMV Screening Library” (2021), ChEMBL document CHEMBL3988442.

The filed quantity is “Percent Effect” (%).
The record does not define 0% and 100%; most values in the screen are far below 50% and negative numbers occur (in some assays of this library far below -100).
This is an unselected part of the compounds tested.
Two or more numbers in one place are separate tests of the same structure; such repeats can differ widely.

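Whole-cell growth test on Mycobacterium tuberculosis, read after 3 days in glucose-containing 7H9 medium; the read-out is not stated. Concentration: 50 µM. Direction is inferred from retests: higher values go with more growth inhibition. About 69,000 compounds were tested under these conditions; 1.1% (about 760) showed 50% or more at least once.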

NC(=O)Cn1ccnc1C1CCCN(Cc2nc3ccccc3s2)C1 (stereo not drawn) read 3.002% & -3.691%. With Cc1ccc(-n2ccnc2)c(C(=O)NCCCN(C)C)c1 the screen gave -9.944%. Result for CCc1ccccc1NC(=O)c1cnn(C)c1C was 34.53% & 3.417%. Result for COc1coc(CN2CCCC(CCc3ccccc3F)C2)cc1=O (stereo not drawn) was 26.11% & 47.04%. O=C(O)C(F)(F)F.[H][C@@]12COC[C@]1(CNS(=O)(=O)C1CC1)CN(c1ncc(F)cn1)C2 read -14.43%.

For [H][C@]12CNC[C@@]1(C(=O)N(C)Cc1ccco1)CN(C1CCCC1)C2 the result was -8.119% & 3.973%. With Cc1cnn(CCNCCCOc2ccc(C#N)cc2)c1 the screen gave 12.46% & 9.471%. CCc1nnc(CN(CC)C(=O)C2CC(=O)N(C3CC3)C2)o1 (stereo not drawn) gave -36.54%. Result for COCCCn1ccnc1-c1cnc(OC)nc1 was -25.72%. For CCN1CCC(c2nc3ccc(NC(C)C)cn3n2)CC1.O=C(O)C(F)(F)F the result was 6.618%.

With COc1cccc(OCCN2CC[C@@](O)(C3CCOCC3)[C@H](C)C2)c1 the screen gave 26.05%. For Cc1nc(C2(NCc3cccc(F)c3F)CCCCC2)no1 the result was 20.46%. NS(=O)(=O)NCc1cc(-c2ccc(C(F)(F)F)cc2)n[nH]1 read -19.16%. For c1cncc(OCc2nc(C3CC3)nn2-c2ccc3c(c2)OCCO3)c1 the result was -54.39%. Cc1nocc1C(=O)N1CCc2c(CN(C)C)nn(C)c2C1 read -10.16%.

Result for Cc1nc(C)n(CC2CCCN(c3ccnc(-c4ccccc4)n3)C2)n1 (stereo not drawn) was 39.78%. O=C(Nc1ccc(CCN2CCC(O)CC2)cc1)C1CCOCC1 read 12.18%. CC(=O)N1CCN(c2cc(C3CN(C(C)=O)CCO3)nc(C)n2)CC1 (stereo not drawn) gave -7.112%. For COc1cc(C(=O)N(Cc2cccs2)C2CC2)cc2c1OCCO2 the result was -10.07%. CCN1CCN(C(=O)c2cccn2Cc2ccccc2)CC1 read -5.678%.

For CNc1nnc(SCc2nnc(C(C)(C)C)o2)s1 the result was -33.19%. With Cl.Cn1cc([C@@H]2CN(S(=O)(=O)c3cccnc3)C[C@H]2N)c2ccncc21 the screen gave -19.37%. Cc1ccc(NC2CCN(C(=O)COCC3CC3)CC2)nn1 gave -1.048%. CNc1nc(C(=O)N2CCCn3nc(C(=O)N4CCCC4)cc3C2)cs1 read -3.807%. With O=C(O)C(F)(F)F.[H][C@@]12CCN(CCc3ccccc3)C[C@]1([H])[C@H](C(=O)N(C)C)CCO2 the screen gave 20.78%.

With COc1cccc(OC2CN(C(=O)Cn3nc4ccccc4n3)C2)c1 the screen gave -0.4178% & 9.535%. For Cc1ccc(CN(C(=O)NCc2nnc3n2CCCCC3)C2CC2)o1 the result was 21.79% & -4.787%. CCOc1ccccc1OCCN(C)Cc1nccn1C read -15.61%. Cc1cccc(CC(=O)Nc2cnn(C3CCOC3)c2)c1 (stereo not drawn) gave 9.553%.